Source: the supplement of paper PMC12823440, “Inhibitors supercharge kinase turnover through native proteolytic circuits” (Nature, 2025)
Where a name gives a salt, the structure may show the parent alone. Some of the results follow. Hit calls seldom repeat between salt and free forms of one compound.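 Kinases were expressed as nanoluciferase fusions in K562 cells and luminescence was read every 4 h between 2 and 18 h as percent of control, DMSO set to 100% and a positive control to 0%. A time point counts as decreased when the signal drops significantly (2 sigma). The hit call is the authors' own, does not follow from the count of time points alone, and its rule is not shown.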

Protein sequences, listed by entry. Tags and fused reporters are not part of them. Lines headed by an entry give the natural chain unless they say otherwise; changes in a name come on top.
UniProt P00519, whole entry: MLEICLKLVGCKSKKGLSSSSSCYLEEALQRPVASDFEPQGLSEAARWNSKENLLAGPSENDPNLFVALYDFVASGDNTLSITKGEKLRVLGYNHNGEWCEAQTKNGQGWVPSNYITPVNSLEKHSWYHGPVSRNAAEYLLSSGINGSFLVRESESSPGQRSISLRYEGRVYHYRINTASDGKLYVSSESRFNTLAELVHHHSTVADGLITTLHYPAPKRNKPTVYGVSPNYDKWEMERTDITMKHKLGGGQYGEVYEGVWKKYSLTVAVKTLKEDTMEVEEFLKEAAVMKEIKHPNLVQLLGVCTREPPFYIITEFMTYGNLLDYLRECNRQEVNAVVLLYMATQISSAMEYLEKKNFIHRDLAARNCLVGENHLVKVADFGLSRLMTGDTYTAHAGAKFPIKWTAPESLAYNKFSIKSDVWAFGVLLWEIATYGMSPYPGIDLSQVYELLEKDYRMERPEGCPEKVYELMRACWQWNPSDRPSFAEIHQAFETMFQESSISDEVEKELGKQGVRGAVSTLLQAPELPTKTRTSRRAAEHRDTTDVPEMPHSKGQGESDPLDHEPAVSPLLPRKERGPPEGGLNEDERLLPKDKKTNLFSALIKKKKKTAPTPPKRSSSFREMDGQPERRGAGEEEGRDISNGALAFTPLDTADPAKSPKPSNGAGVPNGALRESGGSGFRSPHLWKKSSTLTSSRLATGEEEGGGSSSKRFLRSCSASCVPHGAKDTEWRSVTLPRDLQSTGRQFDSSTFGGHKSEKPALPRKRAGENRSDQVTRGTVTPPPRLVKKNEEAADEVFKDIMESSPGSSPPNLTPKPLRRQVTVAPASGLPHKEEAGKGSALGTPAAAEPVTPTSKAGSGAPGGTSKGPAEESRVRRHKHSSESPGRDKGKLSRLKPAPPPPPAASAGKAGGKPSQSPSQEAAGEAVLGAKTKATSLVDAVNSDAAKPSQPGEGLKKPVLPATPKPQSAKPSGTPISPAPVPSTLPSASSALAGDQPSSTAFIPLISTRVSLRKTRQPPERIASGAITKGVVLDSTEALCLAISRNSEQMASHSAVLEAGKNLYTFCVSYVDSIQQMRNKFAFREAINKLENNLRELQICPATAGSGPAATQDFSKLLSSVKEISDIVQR
UniProt P31749: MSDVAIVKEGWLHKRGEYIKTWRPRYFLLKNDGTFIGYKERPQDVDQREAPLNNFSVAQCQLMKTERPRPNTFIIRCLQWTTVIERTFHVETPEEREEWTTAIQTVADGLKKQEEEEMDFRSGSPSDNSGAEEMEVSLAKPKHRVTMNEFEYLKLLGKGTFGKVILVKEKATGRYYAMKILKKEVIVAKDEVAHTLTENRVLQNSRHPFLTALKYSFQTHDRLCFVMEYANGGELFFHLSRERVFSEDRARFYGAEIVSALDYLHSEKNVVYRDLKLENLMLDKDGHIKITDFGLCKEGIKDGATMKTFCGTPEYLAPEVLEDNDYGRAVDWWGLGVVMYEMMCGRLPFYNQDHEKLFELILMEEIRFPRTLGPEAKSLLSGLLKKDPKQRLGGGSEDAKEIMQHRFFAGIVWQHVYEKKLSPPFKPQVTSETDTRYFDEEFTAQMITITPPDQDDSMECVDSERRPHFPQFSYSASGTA
UniProt Q9UM73: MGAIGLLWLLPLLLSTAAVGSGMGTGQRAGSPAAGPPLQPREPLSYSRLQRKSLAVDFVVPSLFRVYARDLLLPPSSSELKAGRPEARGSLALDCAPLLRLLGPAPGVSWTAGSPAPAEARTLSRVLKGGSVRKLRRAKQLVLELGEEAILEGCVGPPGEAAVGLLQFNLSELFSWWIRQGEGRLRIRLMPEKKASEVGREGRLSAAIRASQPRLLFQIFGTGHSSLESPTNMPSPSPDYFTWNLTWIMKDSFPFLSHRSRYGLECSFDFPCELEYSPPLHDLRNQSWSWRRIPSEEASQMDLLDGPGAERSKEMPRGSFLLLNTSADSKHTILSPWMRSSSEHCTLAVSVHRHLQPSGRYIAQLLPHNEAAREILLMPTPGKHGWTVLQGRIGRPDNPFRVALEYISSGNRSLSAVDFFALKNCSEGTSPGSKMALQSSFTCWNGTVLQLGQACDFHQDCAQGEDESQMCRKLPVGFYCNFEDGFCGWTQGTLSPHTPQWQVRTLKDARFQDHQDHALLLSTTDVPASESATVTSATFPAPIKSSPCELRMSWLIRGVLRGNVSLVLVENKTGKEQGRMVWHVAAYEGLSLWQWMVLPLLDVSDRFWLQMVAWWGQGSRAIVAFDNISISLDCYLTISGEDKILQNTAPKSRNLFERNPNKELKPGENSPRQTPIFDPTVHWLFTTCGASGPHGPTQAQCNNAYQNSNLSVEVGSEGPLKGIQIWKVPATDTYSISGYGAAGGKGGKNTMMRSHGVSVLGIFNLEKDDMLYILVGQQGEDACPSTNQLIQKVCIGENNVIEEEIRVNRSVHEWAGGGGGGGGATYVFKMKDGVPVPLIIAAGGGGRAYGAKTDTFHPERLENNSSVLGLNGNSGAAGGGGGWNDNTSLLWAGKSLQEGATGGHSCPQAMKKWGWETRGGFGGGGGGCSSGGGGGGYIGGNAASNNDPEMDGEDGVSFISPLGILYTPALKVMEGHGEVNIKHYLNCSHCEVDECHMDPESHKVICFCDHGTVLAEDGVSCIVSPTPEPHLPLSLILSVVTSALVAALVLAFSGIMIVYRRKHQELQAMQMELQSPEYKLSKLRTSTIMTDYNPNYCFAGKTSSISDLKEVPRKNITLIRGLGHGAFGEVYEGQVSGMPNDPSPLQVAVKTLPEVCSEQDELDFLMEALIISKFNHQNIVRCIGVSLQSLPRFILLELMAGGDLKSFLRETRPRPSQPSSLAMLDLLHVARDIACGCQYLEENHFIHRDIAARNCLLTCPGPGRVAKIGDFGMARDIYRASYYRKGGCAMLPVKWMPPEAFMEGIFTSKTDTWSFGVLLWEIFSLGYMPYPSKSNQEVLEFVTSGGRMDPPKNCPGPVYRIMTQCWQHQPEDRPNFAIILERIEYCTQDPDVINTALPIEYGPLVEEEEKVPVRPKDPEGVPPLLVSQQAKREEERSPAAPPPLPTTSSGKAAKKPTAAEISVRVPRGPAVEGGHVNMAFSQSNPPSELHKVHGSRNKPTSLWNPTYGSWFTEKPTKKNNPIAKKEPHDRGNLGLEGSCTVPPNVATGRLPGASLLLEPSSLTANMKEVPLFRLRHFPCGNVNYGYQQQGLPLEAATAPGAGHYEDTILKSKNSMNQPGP
UniProt P10398: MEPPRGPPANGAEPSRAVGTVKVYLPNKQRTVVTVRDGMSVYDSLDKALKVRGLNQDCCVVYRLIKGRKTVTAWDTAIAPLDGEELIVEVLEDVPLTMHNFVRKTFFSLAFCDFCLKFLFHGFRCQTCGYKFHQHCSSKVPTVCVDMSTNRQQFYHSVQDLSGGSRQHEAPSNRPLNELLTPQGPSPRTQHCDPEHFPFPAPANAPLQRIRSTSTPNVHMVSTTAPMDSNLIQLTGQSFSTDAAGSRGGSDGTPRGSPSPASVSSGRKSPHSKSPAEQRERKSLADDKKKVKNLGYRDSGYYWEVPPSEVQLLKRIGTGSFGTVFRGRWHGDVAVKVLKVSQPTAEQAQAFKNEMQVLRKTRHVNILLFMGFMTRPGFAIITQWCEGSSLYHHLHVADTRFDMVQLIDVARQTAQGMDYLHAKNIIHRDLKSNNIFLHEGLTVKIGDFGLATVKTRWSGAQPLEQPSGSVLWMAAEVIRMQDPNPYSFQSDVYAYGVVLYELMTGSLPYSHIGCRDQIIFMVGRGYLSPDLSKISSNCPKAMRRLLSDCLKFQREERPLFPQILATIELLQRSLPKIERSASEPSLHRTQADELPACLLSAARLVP
UniProt O14965: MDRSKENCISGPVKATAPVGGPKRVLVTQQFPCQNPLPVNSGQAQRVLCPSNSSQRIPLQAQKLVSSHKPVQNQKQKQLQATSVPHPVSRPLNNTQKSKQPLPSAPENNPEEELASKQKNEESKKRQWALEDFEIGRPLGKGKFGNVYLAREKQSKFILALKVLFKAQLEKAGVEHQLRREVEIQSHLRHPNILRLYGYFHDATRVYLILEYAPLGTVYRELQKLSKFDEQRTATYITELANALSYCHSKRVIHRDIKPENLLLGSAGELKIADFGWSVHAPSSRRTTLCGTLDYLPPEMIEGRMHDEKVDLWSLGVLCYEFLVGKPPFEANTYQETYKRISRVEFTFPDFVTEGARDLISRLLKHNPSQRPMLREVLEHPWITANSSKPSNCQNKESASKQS
UniProt Q96GD4, whole entry: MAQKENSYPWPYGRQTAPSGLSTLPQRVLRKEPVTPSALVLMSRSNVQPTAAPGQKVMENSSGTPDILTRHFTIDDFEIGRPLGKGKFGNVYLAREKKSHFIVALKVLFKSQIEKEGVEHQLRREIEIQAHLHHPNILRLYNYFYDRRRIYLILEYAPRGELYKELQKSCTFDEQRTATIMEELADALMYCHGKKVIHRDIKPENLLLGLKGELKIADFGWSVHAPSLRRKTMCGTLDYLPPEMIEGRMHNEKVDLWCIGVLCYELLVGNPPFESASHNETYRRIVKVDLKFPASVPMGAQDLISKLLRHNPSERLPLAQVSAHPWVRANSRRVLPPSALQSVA
UniProt Q9UQB9: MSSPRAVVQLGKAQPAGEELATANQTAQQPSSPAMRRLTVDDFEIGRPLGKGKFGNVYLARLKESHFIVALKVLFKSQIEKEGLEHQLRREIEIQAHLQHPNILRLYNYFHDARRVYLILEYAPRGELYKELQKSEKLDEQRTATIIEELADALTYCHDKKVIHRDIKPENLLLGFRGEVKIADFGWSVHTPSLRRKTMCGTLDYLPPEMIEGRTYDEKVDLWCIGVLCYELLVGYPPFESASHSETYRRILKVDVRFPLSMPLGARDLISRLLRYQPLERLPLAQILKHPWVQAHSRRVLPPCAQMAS
UniProt P51451: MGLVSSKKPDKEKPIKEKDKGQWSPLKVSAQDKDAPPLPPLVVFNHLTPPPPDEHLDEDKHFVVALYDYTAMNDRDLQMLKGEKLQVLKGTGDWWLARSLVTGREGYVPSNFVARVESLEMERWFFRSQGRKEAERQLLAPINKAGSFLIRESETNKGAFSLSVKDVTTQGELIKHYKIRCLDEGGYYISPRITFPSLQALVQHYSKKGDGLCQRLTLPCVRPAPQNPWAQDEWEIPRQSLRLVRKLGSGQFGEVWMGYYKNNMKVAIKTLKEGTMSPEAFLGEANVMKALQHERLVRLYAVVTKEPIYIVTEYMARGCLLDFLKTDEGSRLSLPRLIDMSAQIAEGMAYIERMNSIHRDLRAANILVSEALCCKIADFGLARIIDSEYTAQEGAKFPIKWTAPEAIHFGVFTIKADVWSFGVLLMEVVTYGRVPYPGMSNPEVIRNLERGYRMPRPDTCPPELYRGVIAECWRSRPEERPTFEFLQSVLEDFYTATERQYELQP
UniProt P51813: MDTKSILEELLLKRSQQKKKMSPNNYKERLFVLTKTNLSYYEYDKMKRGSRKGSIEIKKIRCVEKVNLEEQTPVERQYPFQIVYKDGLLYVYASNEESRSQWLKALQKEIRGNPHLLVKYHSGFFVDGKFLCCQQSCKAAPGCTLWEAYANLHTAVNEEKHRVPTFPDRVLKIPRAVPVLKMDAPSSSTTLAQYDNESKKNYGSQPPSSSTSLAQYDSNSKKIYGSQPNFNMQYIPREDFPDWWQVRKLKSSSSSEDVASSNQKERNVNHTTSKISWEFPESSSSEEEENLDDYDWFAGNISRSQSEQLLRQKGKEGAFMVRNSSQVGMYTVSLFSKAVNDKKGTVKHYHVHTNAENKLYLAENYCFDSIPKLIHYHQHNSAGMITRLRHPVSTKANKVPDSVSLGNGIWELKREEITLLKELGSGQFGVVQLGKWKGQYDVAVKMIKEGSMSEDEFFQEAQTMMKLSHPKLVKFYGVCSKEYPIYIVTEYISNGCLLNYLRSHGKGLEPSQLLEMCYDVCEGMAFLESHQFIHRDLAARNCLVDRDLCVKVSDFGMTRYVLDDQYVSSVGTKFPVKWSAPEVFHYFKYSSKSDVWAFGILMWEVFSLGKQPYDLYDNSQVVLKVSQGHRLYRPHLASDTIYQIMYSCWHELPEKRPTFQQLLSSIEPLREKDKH

Key:
Assay in all cases: kinase-Nluc reporter destabilization hit call (1 = scored as downregulated) (binary); higher = compound decreases kinase abundance
Settings in all cases: K562, 2-18 h
ABL1 = ABL1 (UniProt P00519)
AKT1 = AKT1 (UniProt P31749)
ALK = ALK (UniProt Q9UM73)
ARAF = ARAF (UniProt P10398)
AURKA = AURKA (UniProt O14965)
AURKB = AURKB (UniProt Q96GD4)
AURKC = AURKC (UniProt Q9UQB9)
BLK = BLK (UniProt P51451)
BMX = BMX (UniProt P51813)
BRAF = BRAF (UniProt P15056)

| Compound | kinase-Nluc reporter destabilization hit call (ABL1; 10 µM) | kinase-Nluc reporter destabilization hit call (AKT1; 10 µM) | kinase-Nluc reporter destabilization hit call (ALK; 10 µM) | kinase-Nluc reporter destabilization hit call (ARAF; 10 µM) | kinase-Nluc reporter destabilization hit call (AURKA; 10 µM) | kinase-Nluc reporter destabilization hit call (AURKB; 10 µM) | kinase-Nluc reporter destabilization hit call (AURKC; 10 µM) | kinase-Nluc reporter destabilization hit call (BLK; 10 µM) | kinase-Nluc reporter destabilization hit call (BMX; 10 µM) | kinase-Nluc reporter destabilization hit call (BRAF; 10 µM) | kinase-Nluc reporter destabilization hit call (ABL1; 2.5 µM) | kinase-Nluc reporter destabilization hit call (AKT1; 2.5 µM) | kinase-Nluc reporter destabilization hit call (ALK; 2.5 µM) | kinase-Nluc reporter destabilization hit call (ARAF; 2.5 µM) | kinase-Nluc reporter destabilization hit call (AURKA; 2.5 µM) | kinase-Nluc reporter destabilization hit call (AURKB; 2.5 µM) | kinase-Nluc reporter destabilization hit call (AURKC; 2.5 µM) | kinase-Nluc reporter destabilization hit call (BLK; 2.5 µM) | kinase-Nluc reporter destabilization hit call (BMX; 2.5 µM) | kinase-Nluc reporter destabilization hit call (BRAF; 2.5 µM) |
| --- | --- | --- | --- | --- | --- | --- | --- | --- | --- | --- | --- | --- | --- | --- | --- | --- | --- | --- | --- | --- |
| O=C(c1ccc(F)c(F)c1Nc1ccc(I)cc1F)N1CC(O)([C@@H]2CCCCN2)C1 [Cobimetinib (hemifumarate)] | inactive: 0 | inactive: 0 | inactive: 0 | inactive: 0 | inactive: 0 | inactive: 0 | inactive: 0 | inactive: 0 | inactive: 0 | inactive: 0 |  |  |  |  |  |  |  |  |  |  |
| COc1cc2nccc(Oc3ccc(NC(=O)C4(C(=O)Nc5ccc(F)cc5)CC4)cc3)c2cc1OC [Cabozantinib] |  |  |  |  |  |  |  |  |  |  | inactive: 0 | inactive: 0 | inactive: 0 | inactive: 0 | inactive: 0 | inactive: 0 | inactive: 0 | inactive: 0 | inactive: 0 | inactive: 0 |
| CNC(=O)c1ccccc1Nc1cc(Nc2ccc(N3CCOCC3)cc2OC)ncc1C(F)(F)F | inactive: 0 | inactive: 0 | inactive: 0 | inactive: 0 | inactive: 0 | inactive: 0 | inactive: 0 | inactive: 0 | inactive: 0 | inactive: 0 |  |  |  |  |  |  |  |  |  |  |
| O=C(Nc1cnn2ccc(N3CCC[C@@H]3c3cc(F)ccc3F)nc12)N1CC[C@H](O)C1 [Larotrectinib sulfate] | inactive: 0 | inactive: 0 | inactive: 0 | inactive: 0 | inactive: 0 | inactive: 0 | inactive: 0 | inactive: 0 | inactive: 0 | inactive: 0 |  |  |  |  |  |  |  |  |  |  |
| CN(C)C(=O)c1cc2cnc(Nc3ccc(N4CCNCC4)cn3)nc2n1C1CCCC1 [Ribociclib hydrochloride] |  |  |  |  |  |  |  |  |  |  | inactive: 0 | inactive: 0 | inactive: 0 | inactive: 0 | inactive: 0 | inactive: 0 | inactive: 0 | inactive: 0 | inactive: 0 | inactive: 0 |
| COc1cc2c(cc1OC)-c1c(C)c3ccc(OC)c(OC)c3c[n+]1CC2 [Dehydrocorydaline] | inactive: 0 | inactive: 0 | inactive: 0 | inactive: 0 | inactive: 0 | inactive: 0 | inactive: 0 | inactive: 0 | inactive: 0 | inactive: 0 |  |  |  |  |  |  |  |  |  |  |
| COc1ccnc(C[S+]([O-])c2nc3cc(-n4cccc4)ccc3[nH]2)c1C (stereo not given) [Ilaprazole] | inactive: 0 | inactive: 0 | inactive: 0 | inactive: 0 | inactive: 0 | inactive: 0 | inactive: 0 | inactive: 0 | inactive: 0 | inactive: 0 |  |  |  |  |  |  |  |  |  |  |
| C=CC(=O)Nc1cc(Nc2nccc(-c3cn(C4CC4)c4ccccc34)n2)c(OC)cc1N(C)CCN(C)C [Almonertinib] |  |  |  |  |  |  |  |  |  |  | inactive: 0 | inactive: 0 | inactive: 0 | inactive: 0 | inactive: 0 | inactive: 0 | inactive: 0 | inactive: 0 | inactive: 0 | inactive: 0 |
| CCN(CC)Cc1ccc(OC)c(-c2cc3c(-c4ccc(C(=O)O)c(C(C)C)c4)ccnc3[nH]2)c1 | inactive: 0 | inactive: 0 | inactive: 0 | inactive: 0 | inactive: 0 | inactive: 0 | inactive: 0 | inactive: 0 | inactive: 0 | inactive: 0 | inactive: 0 | inactive: 0 | inactive: 0 | inactive: 0 | inactive: 0 | inactive: 0 | inactive: 0 | inactive: 0 | inactive: 0 | inactive: 0 |
| C#Cc1cccc(Nc2ncnc3cc(OCCOC)c(OCCO)cc23)c1 [Desmethyl Erlotinib] | inactive: 0 | inactive: 0 | inactive: 0 | inactive: 0 | inactive: 0 | inactive: 0 | inactive: 0 | inactive: 0 | inactive: 0 | inactive: 0 |  |  |  |  |  |  |  |  |  |  |
| COC(=O)[C@H](CC(C)C)NC(=O)c1ccc(NC[C@@H](N)CS)cc1-c1cccc2ccccc12 | inactive: 0 | inactive: 0 | inactive: 0 | inactive: 0 | inactive: 0 | inactive: 0 | inactive: 0 | inactive: 0 | inactive: 0 | inactive: 0 |  |  |  |  |  |  |  |  |  |  |
| COc1cc(/C=C/C(=O)O)ccc1O [Ferulic acid (sodium)] | inactive: 0 | inactive: 0 | inactive: 0 | inactive: 0 | inactive: 0 | inactive: 0 | inactive: 0 | inactive: 0 | inactive: 0 | inactive: 0 |  |  |  |  |  |  |  |  |  |  |
| COC(=O)[C@H](CC(C)C)NC(=O)c1ccc(NC[C@@H](N)CS)cc1-c1cccc2ccccc12 [GGTI298 (Trifluoroacetate)] | inactive: 0 | inactive: 0 | inactive: 0 | inactive: 0 | inactive: 0 | inactive: 0 | inactive: 0 | inactive: 0 | inactive: 0 | inactive: 0 |  |  |  |  |  |  |  |  |  |  |
| CN(C)C(=N)NC(=N)N [Metformin] | inactive: 0 | inactive: 0 | inactive: 0 | inactive: 0 | inactive: 0 | inactive: 0 | inactive: 0 | inactive: 0 | inactive: 0 | inactive: 0 |  |  |  |  |  |  |  |  |  |  |
| Cc1nc2ccc(-n3c(-c4nonc4N)nc4cnccc43)cc2[nH]1 | inactive: 0 | inactive: 0 | inactive: 0 | inactive: 0 | inactive: 0 | inactive: 0 | inactive: 0 | inactive: 0 | inactive: 0 | inactive: 0 |  |  |  |  |  |  |  |  |  |  |
| CC(C)Oc1ccc(-c2nn([C@@H](C)c3oc4ccc(F)cc4c(=O)c3-c3cccc(F)c3)c3ncnc(N)c23)cc1F [Umbralisib (hydrochloride)] |  |  |  |  |  |  |  |  |  |  | inactive: 0 | inactive: 0 | inactive: 0 | inactive: 0 | inactive: 0 | inactive: 0 | inactive: 0 | inactive: 0 | inactive: 0 | inactive: 0 |
| CN(C)C/C=C/C(=O)Nc1cc2c(Nc3ccc(F)c(Cl)c3)ncnc2cc1O[C@H]1CCOC1 [Afatinib] | inactive: 0 | inactive: 0 | inactive: 0 | inactive: 0 | inactive: 0 | inactive: 0 | inactive: 0 | inactive: 0 | inactive: 0 | inactive: 0 |  |  |  |  |  |  |  |  |  |  |
| C=CC(=O)Nc1cc2c(Nc3ccc(F)c(Cl)c3)ncnc2cc1C#CC(C)(C)N1CCN(C)CC1 [AV-412 (free base)] |  |  |  |  |  |  |  |  |  |  | inactive: 0 | inactive: 0 | inactive: 0 | inactive: 0 | inactive: 0 | inactive: 0 | inactive: 0 | inactive: 0 | inactive: 0 | inactive: 0 |
| Cn1ncc(Cl)c1-c1cc(C(=O)N[C@H](CN)Cc2cccc(F)c2)sc1Cl [Afuresertib] | inactive: 0 | inactive: 0 | inactive: 0 | inactive: 0 | inactive: 0 | inactive: 0 | inactive: 0 | active: 1 | inactive: 0 | inactive: 0 |  |  |  |  |  |  |  |  |  |  |
| N#CCC1(n2cc(-c3ncnc4[nH]ccc34)cn2)CN(C2CCN(C(=O)c3ccnc(C(F)(F)F)c3F)CC2)C1 [Itacitinib] | inactive: 0 | inactive: 0 | inactive: 0 | inactive: 0 | inactive: 0 | inactive: 0 | inactive: 0 | inactive: 0 | inactive: 0 | inactive: 0 |  |  |  |  |  |  |  |  |  |  |
| Cc1cccc(-c2[nH]c(CNc3ccccc3F)nc2-c2ccc3ncnn3c2)n1 [Vactosertib] |  |  |  |  |  |  |  |  |  |  | inactive: 0 | inactive: 0 | inactive: 0 | inactive: 0 | inactive: 0 | inactive: 0 | inactive: 0 | inactive: 0 | inactive: 0 | inactive: 0 |
| CN(C)C(=O)c1cc2cnc(Nc3ccc(N4CCNCC4)cn3)nc2n1C1CCCC1 [Ribociclib succinate] | inactive: 0 | inactive: 0 | inactive: 0 | inactive: 0 | inactive: 0 | inactive: 0 | inactive: 0 | inactive: 0 | inactive: 0 | inactive: 0 |  |  |  |  |  |  |  |  |  |  |
| CC(C)(C)n1nc(-c2cccc3ccccc23)c2c(N)ncnc21 [1-Naphthyl PP1] | inactive: 0 | inactive: 0 | inactive: 0 | inactive: 0 | inactive: 0 | inactive: 0 | inactive: 0 | inactive: 0 | inactive: 0 | inactive: 0 |  |  |  |  |  |  |  |  |  |  |
| C[C@H](Nc1cc(-c2cnn(C)c2)cc(Nc2cnccn2)n1)c1ccc(F)cc1 [Ilginatinib] |  |  |  |  |  |  |  |  |  |  | inactive: 0 | inactive: 0 | inactive: 0 | inactive: 0 | inactive: 0 | inactive: 0 | inactive: 0 | inactive: 0 | inactive: 0 | inactive: 0 |
| C=CC(=O)N1CCN(c2ncnc3c(F)c(-c4c(O)cccc4F)c(Cl)cc23)CC1 | inactive: 0 | inactive: 0 | inactive: 0 | inactive: 0 | inactive: 0 | inactive: 0 | inactive: 0 | inactive: 0 | inactive: 0 | inactive: 0 | inactive: 0 | inactive: 0 | inactive: 0 | inactive: 0 | inactive: 0 | inactive: 0 | inactive: 0 | inactive: 0 | inactive: 0 | inactive: 0 |
| CN(C)C(=O)c1cc2cnc(Nc3ccc(N4CCNCC4)cn3)nc2n1C1CCCC1 [Ribociclib succinate hydrate] |  |  |  |  |  |  |  |  |  |  | inactive: 0 | inactive: 0 | inactive: 0 | inactive: 0 | inactive: 0 | inactive: 0 | inactive: 0 | inactive: 0 | inactive: 0 | inactive: 0 |
| O=C(Nc1ccncc1)Nc1ccc(-c2nc(N3CCOCC3)nc(N3C4CCC3COC4)n2)cc1 | active: 1 | inactive: 0 | inactive: 0 | inactive: 0 | active: 1 | inactive: 0 | inactive: 0 | inactive: 0 | inactive: 0 | inactive: 0 |  |  |  |  |  |  |  |  |  |  |

Some of the entries so far, in CSV form.
Compound,kinase-Nluc reporter destabilization hit call (ABL1; 10 µM),kinase-Nluc reporter destabilization hit call (AKT1; 10 µM),kinase-Nluc reporter destabilization hit call (ALK; 10 µM),kinase-Nluc reporter destabilization hit call (ARAF; 10 µM),kinase-Nluc reporter destabilization hit call (AURKA; 10 µM),kinase-Nluc reporter destabilization hit call (AURKB; 10 µM),kinase-Nluc reporter destabilization hit call (AURKC; 10 µM),kinase-Nluc reporter destabilization hit call (BLK; 10 µM),kinase-Nluc reporter destabilization hit call (BMX; 10 µM),kinase-Nluc reporter destabilization hit call (BRAF; 10 µM),kinase-Nluc reporter destabilization hit call (ABL1; 2.5 µM),kinase-Nluc reporter destabilization hit call (AKT1; 2.5 µM),kinase-Nluc reporter destabilization hit call (ALK; 2.5 µM),kinase-Nluc reporter destabilization hit call (ARAF; 2.5 µM),kinase-Nluc reporter destabilization hit call (AURKA; 2.5 µM),kinase-Nluc reporter destabilization hit call (AURKB; 2.5 µM),kinase-Nluc reporter destabilization hit call (AURKC; 2.5 µM),kinase-Nluc reporter destabilization hit call (BLK; 2.5 µM),kinase-Nluc reporter destabilization hit call (BMX; 2.5 µM),kinase-Nluc reporter destabilization hit call (BRAF; 2.5 µM)
CC(C)Oc1ccc(-c2nn([C@@H](C)c3oc4ccc(F)cc4c(=O)c3-c3cccc(F)c3)c3ncnc(N)c23)cc1F [Umbralisib (hydrochloride)],,,,,,,,,,,inactive: 0,inactive: 0,inactive: 0,inactive: 0,inactive: 0,inactive: 0,inactive: 0,inactive: 0,inactive: 0,inactive: 0
CN(C)C/C=C/C(=O)Nc1cc2c(Nc3ccc(F)c(Cl)c3)ncnc2cc1O[C@H]1CCOC1 [Afatinib],inactive: 0,inactive: 0,inactive: 0,inactive: 0,inactive: 0,inactive: 0,inactive: 0,inactive: 0,inactive: 0,inactive: 0,,,,,,,,,,
